The values below come from paper PMC8631196.

For this experiment, the target named is T1, endothelial nitric oxide synthase (rat (endogenous in aorta and mesenteric vascular bed)) (UniProt Q62600).
T1 sequence: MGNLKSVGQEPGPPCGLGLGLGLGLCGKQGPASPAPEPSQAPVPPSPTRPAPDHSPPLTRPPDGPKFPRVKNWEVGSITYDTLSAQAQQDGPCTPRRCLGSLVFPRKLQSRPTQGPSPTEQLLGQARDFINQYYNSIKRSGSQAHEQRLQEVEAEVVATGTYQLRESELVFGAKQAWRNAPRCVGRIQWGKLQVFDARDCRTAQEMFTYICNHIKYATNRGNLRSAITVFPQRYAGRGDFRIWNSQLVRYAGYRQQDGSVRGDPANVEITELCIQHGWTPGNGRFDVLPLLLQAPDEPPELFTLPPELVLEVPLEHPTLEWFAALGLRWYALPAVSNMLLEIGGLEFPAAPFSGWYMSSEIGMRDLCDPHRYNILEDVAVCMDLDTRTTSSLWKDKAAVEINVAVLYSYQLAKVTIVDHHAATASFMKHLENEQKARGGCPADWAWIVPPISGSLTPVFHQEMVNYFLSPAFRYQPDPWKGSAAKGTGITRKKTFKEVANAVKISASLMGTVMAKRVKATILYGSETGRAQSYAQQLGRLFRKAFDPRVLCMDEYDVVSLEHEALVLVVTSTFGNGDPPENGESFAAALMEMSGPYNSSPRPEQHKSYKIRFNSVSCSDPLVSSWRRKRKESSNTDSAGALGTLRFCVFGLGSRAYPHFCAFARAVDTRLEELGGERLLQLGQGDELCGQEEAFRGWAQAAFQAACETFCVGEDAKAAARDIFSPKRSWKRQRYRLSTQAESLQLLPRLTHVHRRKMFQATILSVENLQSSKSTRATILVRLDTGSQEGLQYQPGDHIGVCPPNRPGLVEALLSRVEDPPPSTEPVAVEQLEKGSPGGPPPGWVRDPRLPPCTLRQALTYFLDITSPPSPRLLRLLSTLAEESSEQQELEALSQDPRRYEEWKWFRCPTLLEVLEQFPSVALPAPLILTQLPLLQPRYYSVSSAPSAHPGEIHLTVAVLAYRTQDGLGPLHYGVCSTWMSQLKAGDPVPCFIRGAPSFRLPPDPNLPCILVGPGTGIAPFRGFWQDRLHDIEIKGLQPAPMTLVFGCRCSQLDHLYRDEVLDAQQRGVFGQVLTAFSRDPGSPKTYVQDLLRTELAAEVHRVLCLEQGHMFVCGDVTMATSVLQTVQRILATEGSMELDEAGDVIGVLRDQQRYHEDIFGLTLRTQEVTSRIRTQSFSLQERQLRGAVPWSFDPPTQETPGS
The experiment is described as follows: co-IP; eNOS immunoprecipitated (anti-eNOS, 4°C overnight; protein A/G PLUS-agarose 3 h) from 500 μg supernatant protein of pooled thoracic aorta or mesenteric bed lysed in 2% octyl-D-glucoside buffer; six washes in Tris-buffer; Cav-1 detected by Western blot; non-pregnant and pregnant Wistar rats and SHR. Background: A western blot detects proteins with antibodies after separation by electrophoresis.

Results are given in words; binding and its absence hold for the method and conditions named. Binding seen in cells or lysates may run through a third protein. Some binding calls cover weakened binding; strength is not graded here.

B1: caveolin-1 (protein, UniProt P41350 1-178)
chain: MSGGKYVDSEGHLYTVPIREQGNIYKPNNKAMADEVNEKQVYDAHTKEIDLVNRDPKHLNDDVVKIDFEDVIAEPEGTHSFDGIWKASFTTFTVTKYWFYRLLSTIFGIPMALIWGIYFAILSFLHIWAVVPCIKSFLIEIQCISRVYSIYVHTFCDPLFEAIGKIFSNIRISTQEEI
With B1, the binding entry is “binds”.
